Chains of the proteins cited; added tags and fusions are not shown. Lines headed by an entry give the natural chain unless they say otherwise; changes in a name come on top.
UniProt Q6UW88: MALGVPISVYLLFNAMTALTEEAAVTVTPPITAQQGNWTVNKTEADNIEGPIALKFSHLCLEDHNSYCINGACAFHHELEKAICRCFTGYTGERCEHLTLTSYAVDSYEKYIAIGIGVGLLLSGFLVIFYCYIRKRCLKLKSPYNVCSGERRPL
UniProt P00747: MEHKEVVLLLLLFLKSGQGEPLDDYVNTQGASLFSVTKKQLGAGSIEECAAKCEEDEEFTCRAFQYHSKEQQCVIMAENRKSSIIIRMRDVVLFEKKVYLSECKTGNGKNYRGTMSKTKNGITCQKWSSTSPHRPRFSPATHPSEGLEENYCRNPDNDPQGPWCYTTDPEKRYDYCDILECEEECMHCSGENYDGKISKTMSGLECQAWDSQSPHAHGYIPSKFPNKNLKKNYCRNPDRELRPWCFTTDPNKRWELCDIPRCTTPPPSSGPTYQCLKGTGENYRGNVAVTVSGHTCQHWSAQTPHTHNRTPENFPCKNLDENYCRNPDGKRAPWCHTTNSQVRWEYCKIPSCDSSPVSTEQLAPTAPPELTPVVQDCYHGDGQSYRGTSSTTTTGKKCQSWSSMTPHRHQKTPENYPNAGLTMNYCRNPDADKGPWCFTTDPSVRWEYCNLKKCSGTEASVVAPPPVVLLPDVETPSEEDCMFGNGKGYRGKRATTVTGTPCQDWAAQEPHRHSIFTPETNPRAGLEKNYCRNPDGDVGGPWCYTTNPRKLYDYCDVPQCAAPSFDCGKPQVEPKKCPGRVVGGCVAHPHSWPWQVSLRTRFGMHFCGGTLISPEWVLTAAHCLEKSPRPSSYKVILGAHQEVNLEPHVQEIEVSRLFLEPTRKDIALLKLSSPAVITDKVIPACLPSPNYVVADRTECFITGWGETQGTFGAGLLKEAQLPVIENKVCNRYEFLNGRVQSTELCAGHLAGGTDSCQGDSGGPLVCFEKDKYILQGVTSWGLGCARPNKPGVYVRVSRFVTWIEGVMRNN
UniProt P00742: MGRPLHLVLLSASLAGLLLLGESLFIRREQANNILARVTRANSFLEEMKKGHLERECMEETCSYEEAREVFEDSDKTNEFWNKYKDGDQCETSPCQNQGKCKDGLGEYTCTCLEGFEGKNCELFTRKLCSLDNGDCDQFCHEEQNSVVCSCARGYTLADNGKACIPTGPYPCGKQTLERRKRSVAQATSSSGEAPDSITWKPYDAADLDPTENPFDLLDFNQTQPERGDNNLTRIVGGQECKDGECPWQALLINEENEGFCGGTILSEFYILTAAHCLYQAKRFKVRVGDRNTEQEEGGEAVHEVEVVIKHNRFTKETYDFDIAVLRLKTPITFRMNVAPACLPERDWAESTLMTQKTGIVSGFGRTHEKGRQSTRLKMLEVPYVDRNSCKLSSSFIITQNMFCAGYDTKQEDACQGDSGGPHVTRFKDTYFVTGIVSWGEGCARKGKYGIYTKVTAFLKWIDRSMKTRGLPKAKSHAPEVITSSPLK

In PMC6078952:

Assays:
Assay in all cases: SPR; SPR imaging (SPRi, Biacore Flexchip): partners spotted in triplicate on a bare gold chip at 0.06 to 1 mg/ml; purified LOX-PP injected at 2 µM and recirculated for 20 min; PBS with 0.05% Tween 20, 25 °C; both purified
Glypican 6 = target: Glypican 6
Epigen = Epigen (UniProt Q6UW88)
Fibronectin (cellular) = target: Fibronectin (cellular)
Superoxide dismutase = target: Superoxide dismutase
[1] = target: Transglutaminase-2 (TG-2) (guinea pig) (guinea pig)
[2] = target: Vascular endothelial growth factor (VEGF)
Fibronectin (plasma) = target: Fibronectin (plasma)
Plasminogen = Plasminogen (UniProt P00747)
Coagulation factor X = Coagulation factor X (UniProt P00742)

Measured: binding

B1: Lysyl oxidase propeptide (LOX-PP) (Pro24Leu) (domain or fragment, UniProt P28300 22-168)
chain: APLAAGQQQPPREPPAAPGAWRQQIQWENNGQVFSLLSLGSQYQPQRRRDPGAAVPGAANASAQQPRTPILLIRDNRTAAARTRTAGSSGVTAGRPRPTARHWFQAGYSTSRAREAGASRAENQTAPGEVPALSNLRPPSRVDGMVG
modifications: N-linked glycans (removed by PNGase F)
binds: Fibronectin (cellular) | Superoxide dismutase | Plasminogen
no binding (tested: 2 µM): all other assays above

No constants are given. Whether binding was seen depends on the method and setting. For part of these data: Binding can be weak; no strength is given.
